# Some of the results follow.
# B1: PX9916F-bfa-443-24-443 (Bacteroides fragilis) (protein)
# chain: DIRPVGSVIPQTAEEYRALLARAYLNVPNDRGLACLRSDEMLVNDNEYDRNSYGDIERWNDVSPFPGTSQFTWSNFYNVLFIANQVIESQKEITEGTPEVVNQLVGEAHLLRAYLHFVLVNLHGQPYTKSGALNSKSIPLKLDTDLEKTLGRNTVEEVYTSILSDIEHARELINKEKWETVFSYRFNVLSVDALQSRVSLYMGAWPKCLESAEAVLAKKSVLVDMNETPLALPNHFESVESITALEQVMGSSVNNAVWVPATFLALYQEGDKRLAAYFAAPDENGNRKSSKGGKREFSCTFRVGELYLNAAEAAANMDKLPHARMRLLELMRKRYTPEAYDKKENAVNVMDKNALISEILNERARELAFEGHRWFDLRRTTRPRMVKVLQGKTYILEQDDPRYTIPIPRDAIAANPGLAN
# What was measured:
# Assay in all cases: glycan array binding signal (z-score within array); higher = stronger binding
# Settings in all cases: glycan notation: IUPAC condensed, linker removed
# [1] = target: Fuc(a1-2)[Gal(a1-3)]Gal(b1-4)GlcNAc(b1-2)Man(a1-3)[Fuc(a1-2)[Gal(a1-3)]Gal(b1-4)GlcNAc(b1-2)Man(a1-6)]Man(b1-4)GlcNAc(b1-4)[Fuc(a1-6)]GlcNAc
# Summary of the method: (§1)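 The binding signal is a Z-score computed within each array and averaged over linkers. Arrays of the same protein sequence at different concentrations or buffers were also averaged together. Data originate from 3228 arrays in the Consortium for Functional Glycomics database, kept only where the protein sequence was available.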
# [2] = target: Fuc(a1-2)[Gal(a1-3)]Gal(b1-4)GlcNAc(b1-3)GalNAc
# Summary of the method: as §1
# [3] = target: Fuc(a1-2)[Gal(a1-3)]Gal(b1-4)GlcNAc(b1-3)[Fuc(a1-2)[Gal(a1-3)]Gal(b1-4)GlcNAc(b1-6)]GalNAc
# Summary of the method: as §1
# [4] = target: Fuc(a1-2)[Gal(a1-3)]Gal(b1-4)GlcNAc(b1-6)GalNAc
# Summary of the method: as §1
# [5] = target: Fuc(a1-2)[Gal(a1-3)]Gal(b1-4)[Fuc(a1-3)]Glc
# Summary of the method: as §1
# [6] = target: Fuc(a1-2)[Gal(a1-3)]Gal(b1-4)[Fuc(a1-3)]GlcNAc
# Summary of the method: as §1
# [7] = target: Fuc(a1-2)[Gal(a1-3)]Gal(b1-4)[Fuc(a1-3)]GlcNAc(b1-3)GalNAc
# Summary of the method: as §1
# [8] = target: Fuc(a1-2)[Gal(a1-4)]Gal(b1-4)GlcNAc
# Summary of the method: as §1
# [9] = target: Fuc(a1-2)[GalNAc(a1-3)]Gal
# Summary of the method: as §1
# [10] = target: Fuc(a1-2)[GalNAc(a1-3)]Gal(b1-3)GalNAc(a1-3)[Fuc(a1-2)]Gal(b1-4)GlcNAc
# Summary of the method: as §1
# [11] = target: Fuc(a1-2)[GalNAc(a1-3)]Gal(b1-3)GalNAc(b1-3)Gal(a1-4)Gal(b1-4)Glc
# Summary of the method: as §1
# [12] = target: Fuc(a1-2)[GalNAc(a1-3)]Gal(b1-3)GlcNAc
# Summary of the method: as §1
# [13] = target: Fuc(a1-2)[GalNAc(a1-3)]Gal(b1-3)GlcNAc(b1-2)Man(a1-3)[Fuc(a1-2)[GalNAc(a1-3)]Gal(b1-3)GlcNAc(b1-2)Man(a1-6)]Man(b1-4)GlcNAc(b1-4)GlcNAc
# Summary of the method: as §1
# [14] = target: Fuc(a1-2)[GalNAc(a1-3)]Gal(b1-3)GlcNAc(b1-2)Man(a1-3)[Fuc(a1-2)[GalNAc(a1-3)]Gal(b1-3)GlcNAc(b1-2)Man(a1-6)]Man(b1-4)GlcNAc(b1-4)[Fuc(a1-6)]GlcNAc
# Summary of the method: as §1
# [15] = target: Fuc(a1-2)[GalNAc(a1-3)]Gal(b1-3)GlcNAc(b1-3)GalNAc
# Summary of the method: as §1
# [16] = target: Fuc(a1-2)[GalNAc(a1-3)]Gal(b1-3)GlcNAc(b1-6)GalNAc
# Summary of the method: as §1
# [17] = target: Fuc(a1-2)[GalNAc(a1-3)]Gal(b1-4)Glc
# Summary of the method: as §1
# [18] = target: Fuc(a1-2)[GalNAc(a1-3)]Gal(b1-4)GlcNAc
# Summary of the method: as §1
# [19] = target: Fuc(a1-2)[GalNAc(a1-3)]Gal(b1-4)GlcNAc(b1-2)Man
# Summary of the method: as §1
# [20] = target: Fuc(a1-2)[GalNAc(a1-3)]Gal(b1-4)GlcNAc(b1-2)Man(a1-3)[Fuc(a1-2)[GalNAc(a1-3)]Gal(b1-4)GlcNAc(b1-2)Man(a1-6)]Man(b1-4)GlcNAc(b1-4)GlcNAc
# Summary of the method: as §1
# [21] = target: Fuc(a1-2)[GalNAc(a1-3)]Gal(b1-4)GlcNAc(b1-2)Man(a1-3)[Fuc(a1-2)[GalNAc(a1-3)]Gal(b1-4)GlcNAc(b1-2)Man(a1-6)]Man(b1-4)GlcNAc(b1-4)[Fuc(a1-6)]GlcNAc
# Summary of the method: as §1
# [22] = target: Fuc(a1-2)[GalNAc(a1-3)]Gal(b1-4)GlcNAc(b1-3)Gal(b1-4)GlcNAc
# Summary of the method: as §1
# [23] = target: Fuc(a1-2)[GalNAc(a1-3)]Gal(b1-4)GlcNAc(b1-3)Gal(b1-4)GlcNAc(b1-3)Gal(b1-4)GlcNAc
# Summary of the method: as §1
# [24] = target: Fuc(a1-2)[GalNAc(a1-3)]Gal(b1-4)GlcNAc(b1-3)GalNAc
# Summary of the method: as §1
# [25] = target: Fuc(a1-2)[GalNAc(a1-3)]Gal(b1-4)GlcNAc(b1-3)[Fuc(a1-2)[GalNAc(a1-3)]Gal(b1-4)GlcNAc(b1-6)]GalNAc
# Summary of the method: as §1
# [26] = target: Fuc(a1-2)[GalNAc(a1-3)]Gal(b1-4)GlcNAc(b1-6)GalNAc
# Summary of the method: as §1
# [27] = target: Fuc(a1-2)[GalNAc(a1-3)]Gal(b1-4)[Fuc(a1-3)]GlcNAc
# Summary of the method: as §1
# [28] = target: Fuc(a1-2)[GalNAc(a1-3)]Gal(b1-4)[Fuc(a1-3)]GlcNAc(b1-3)GalNAc
# Summary of the method: as §1
# [29] = target: Fuc(a1-2)[GalNAc(a1-4)]Gal(b1-4)GlcNAc
# Summary of the method: as §1
# [30] = target: Fuc(a1-2)[GalNAc(b1-3)]Gal
# Summary of the method: as §1
# [31] = target: Fuc(a1-3)GlcNAc
# Summary of the method: as §1
# [32] = target: Fuc(a1-3)[Gal(b1-4)]Glc6S
# Summary of the method: as §1
# [33] = target: Fuc(a1-3)[Gal(b1-4)]GlcNAc
# Summary of the method: as §1
# [34] = target: Fuc(a1-3)[Gal(b1-4)]GlcNAc(b1-2)Man
# Summary of the method: as §1
# [35] = target: Fuc(a1-3)[Gal(b1-4)]GlcNAc(b1-2)Man(a1-3)[Fuc(a1-3)[Gal(b1-4)]GlcNAc(b1-2)Man(a1-6)]Man(b1-4)GlcNAc(b1-4)GlcNAc
# Summary of the method: as §1
# [36] = target: Fuc(a1-3)[Gal(b1-4)]GlcNAc(b1-2)Man(a1-3)[Fuc(a1-3)[Gal(b1-4)]GlcNAc(b1-2)Man(a1-6)]Man(b1-4)GlcNAc(b1-4)[Fuc(a1-6)]GlcNAc
# Summary of the method: as §1
# [37] = target: Fuc(a1-3)[Gal(b1-4)]GlcNAc(b1-3)Gal(b1-3)[Fuc(a1-4)]GlcNAc
# Summary of the method: as §1
# [38] = target: Fuc(a1-3)[Gal(b1-4)]GlcNAc(b1-3)Gal(b1-4)[Fuc(a1-3)]GlcNAc
# Summary of the method: as §1
# [39] = target: Fuc(a1-3)[Gal(b1-4)]GlcNAc(b1-3)Gal(b1-4)[Fuc(a1-3)]GlcNAc(b1-3)Gal(b1-4)[Fuc(a1-3)]GlcNAc
# Summary of the method: as §1
# [40] = target: Fuc(a1-3)[Gal(b1-4)]GlcNAc(b1-3)GalNAc
# Summary of the method: as §1
# [41] = target: Fuc(a1-3)[Gal(b1-4)]GlcNAc(b1-6)GalNAc
# Summary of the method: as §1
# [42] = target: Fuc(a1-3)[Gal(b1-4)]GlcNAc(b1-6)[Gal(b1-3)GlcNAc(b1-3)]Gal(b1-4)Glc
# Summary of the method: as §1
# [43] = target: Fuc(a1-3)[Gal(b1-4)]GlcNAc6S
# Summary of the method: as §1
# [44] = target: Fuc(a1-3)[Gal3S(b1-4)]Glc
# Summary of the method: as §1
# [45] = target: Fuc(a1-3)[Gal3S(b1-4)]GlcNAc
# Summary of the method: as §1
# [46] = target: Fuc(a1-3)[Gal3S(b1-4)]GlcNAc6S
# Summary of the method: as §1
# [47] = target: Fuc(a1-3)[GalNAc(b1-4)]GlcNAc
# Summary of the method: as §1
# [48] = target: Fuc(a1-3)[GalNAc(b1-4)]GlcNAc6S
# Summary of the method: as §1
# [49] = target: Fuc(a1-4)GlcNAc
# Summary of the method: as §1
# [50] = target: Fuc(b1-3)GlcNAc
# Summary of the method: as §1
# [51] = target: Gal(a1-2)Gal
# Summary of the method: as §1
# [52] = target: Gal(a1-3)Gal
# Summary of the method: as §1
# [53] = target: Gal(a1-3)Gal(b1-3)GlcNAc
# Summary of the method: as §1
# [54] = target: Gal(a1-3)Gal(b1-3)GlcNAc(b1-2)Man
# Summary of the method: as §1
# [55] = target: Gal(a1-3)Gal(b1-3)GlcNAc(b1-2)Man(a1-3)[Gal(a1-3)Gal(b1-3)GlcNAc(b1-2)Man(a1-6)]Man(b1-4)GlcNAc(b1-4)GlcNAc
# Summary of the method: as §1
# [56] = target: Gal(a1-3)Gal(b1-3)GlcNAc(b1-3)GalNAc
# Summary of the method: as §1
# [57] = target: Gal(a1-3)Gal(b1-3)GlcNAc(b1-6)GalNAc
# Summary of the method: as §1
# [58] = target: Gal(a1-3)Gal(b1-3)[Fuc(a1-4)]GlcNAc(b1-2)Man(a1-3)[Gal(a1-3)Gal(b1-3)[Fuc(a1-4)]GlcNAc(b1-2)Man(a1-6)]Man(b1-4)GlcNAc(b1-4)GlcNAc
# Summary of the method: as §1
# [59] = target: Gal(a1-3)Gal(b1-4)Glc
# Summary of the method: as §1
# [60] = target: Gal(a1-3)Gal(b1-4)GlcNAc
# Summary of the method: as §1
binder,measurement,setting,value
B1,glycan array binding signal (z-score),[1],2.44
same,glycan array binding signal (z-score),[2],-0.737
same,glycan array binding signal (z-score),[3],-0.835
same,glycan array binding signal (z-score),[4],0.541
same,glycan array binding signal (z-score),[5],-1.14
same,glycan array binding signal (z-score),[6],-0.897
same,glycan array binding signal (z-score),[7],-0.036
same,glycan array binding signal (z-score),[8],0.788
same,glycan array binding signal (z-score),[9],0.291
same,glycan array binding signal (z-score),[10],-0.268
same,glycan array binding signal (z-score),[11],0.877
same,glycan array binding signal (z-score),[12],0.646
same,glycan array binding signal (z-score),[13],1.39
same,glycan array binding signal (z-score),[14],-1.27
same,glycan array binding signal (z-score),[15],-0.388
same,glycan array binding signal (z-score),[16],0.212
same,glycan array binding signal (z-score),[17],-0.636
same,glycan array binding signal (z-score),[18],-0.867
same,glycan array binding signal (z-score),[19],-0.014
same,glycan array binding signal (z-score),[20],-0.221
same,glycan array binding signal (z-score),[21],-0.302
same,glycan array binding signal (z-score),[22],-0.616
same,glycan array binding signal (z-score),[23],0.839
same,glycan array binding signal (z-score),[24],-0.576
same,glycan array binding signal (z-score),[25],-0.542
same,glycan array binding signal (z-score),[26],1.03
same,glycan array binding signal (z-score),[27],1.85
same,glycan array binding signal (z-score),[28],2.91
same,glycan array binding signal (z-score),[29],-1.03
same,glycan array binding signal (z-score),[30],-0.431
same,glycan array binding signal (z-score),[31],-0.075
same,glycan array binding signal (z-score),[32],0.743
same,glycan array binding signal (z-score),[33],-0.351
same,glycan array binding signal (z-score),[34],1.44
same,glycan array binding signal (z-score),[35],-0.615
same,glycan array binding signal (z-score),[36],1.24
same,glycan array binding signal (z-score),[37],-0.798
same,glycan array binding signal (z-score),[38],-0.112
same,glycan array binding signal (z-score),[39],1.29
same,glycan array binding signal (z-score),[40],-0.382
same,glycan array binding signal (z-score),[41],-0.245
same,glycan array binding signal (z-score),[42],3.87
same,glycan array binding signal (z-score),[43],-0.917
same,glycan array binding signal (z-score),[44],0.001
same,glycan array binding signal (z-score),[45],-0.082
same,glycan array binding signal (z-score),[46],-0.284
same,glycan array binding signal (z-score),[47],0.251
same,glycan array binding signal (z-score),[48],1.15
same,glycan array binding signal (z-score),[49],1.76
same,glycan array binding signal (z-score),[50],-1.11
same,glycan array binding signal (z-score),[51],-1.03
same,glycan array binding signal (z-score),[52],-1.32
same,glycan array binding signal (z-score),[53],-0.405
same,glycan array binding signal (z-score),[54],-0.056
same,glycan array binding signal (z-score),[55],1.22
same,glycan array binding signal (z-score),[56],-0.788
same,glycan array binding signal (z-score),[57],0.175
same,glycan array binding signal (z-score),[58],0.589
same,glycan array binding signal (z-score),[59],-0.007
same,glycan array binding signal (z-score),[60],-0.052

# Some of the entries so far, with bars between the fields:
binder | measurement | setting | value
B1 | glycan array binding signal (z-score) | [9] | 0.291
same | glycan array binding signal (z-score) | [20] | -0.221
same | glycan array binding signal (z-score) | [25] | -0.542
same | glycan array binding signal (z-score) | [47] | 0.251

# From the supplement of paper PMC8728848
